Source: the supplement of paper PMC12542422
Counter-ions that a name gives are not always drawn. ± gives the standard deviation of the averaged measurements. This is one part of the list. Values are raw readings; no control value is given beside them.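 HeLa cells imaged for ribosome-assembly readouts (ENP1 staining with or without export block, or inducible tagged ribosomal protein reporters); machine learning classified each cell's signal location against solvent (DMSO) controls. Hits exceeded the DMSO false-positive mean by five standard deviations, then were visually confirmed; three biological replicates.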

Legend:
[1] = test system: HeLa K (ENP1 immunofluorescence, +LMB); test: fraction of cells with nucleolar or nucleolar/nucleoplasmic ENP1 signal (MainHitrate); higher = more cells with nucleolar/nuclear readout signal (for ENP1 -LMB: less RNAPI inhibition; for +LMB ENP1 and RP reporters: stronger nuclear/nucleolar retention, i.e. ribosome biogenesis defect); conditions: concentration: 1 µM; treatment time: 6 h; ENP1 +LMB; leptomycin B: 20 nM, last 1.5 h
[2] = test system: HeLa K (ENP1 immunofluorescence, no LMB); test: as above; conditions: concentration: 1 µM; treatment time: 6 h; ENP1 -LMB; leptomycin B: none
[3] = test system: HeLa RPS2-YFP reporter; test: fraction of reporter-positive cells with nuclear (nucleolar or nucleolar/nucleoplasmic) RPS2-YFP (MainHitrate); higher = more cells with nucleolar/nuclear readout signal (for ENP1 -LMB: less RNAPI inhibition; for +LMB ENP1 and RP reporters: stronger nuclear/nucleolar retention, i.e. ribosome biogenesis defect); conditions: concentration: 1 µM; treatment time: 6 h
[4] = test system: HeLa RPL29-GFP reporter; test: fraction of reporter-positive cells with nuclear (nucleolar or nucleolar/nucleoplasmic) RPL29-GFP (MainHitrate); higher = more cells with nucleolar/nuclear readout signal (for ENP1 -LMB: less RNAPI inhibition; for +LMB ENP1 and RP reporters: stronger nuclear/nucleolar retention, i.e. ribosome biogenesis defect); conditions: concentration: 1 µM; treatment time: 6 h

| SMILES | fraction [1] | fraction [2] | fraction of reporter-positive cells with nuclear [3] | fraction of reporter-positive cells with nuclear [4] |
| --- | --- | --- | --- | --- |
| O=C(O)c1ccc(-n2nc(-c3ccccc3O)nc2-c2ccccc2O)cc1 [Deferasirox (Exjade)] | 0.0823 ± 0.074 | 0.9989 ± 0.0019 | 0.115 ± 0.064 | 0.218 ± 0.07 |
| CCOC(=O)C(C)(C)Oc1ccc(Cl)cc1 [Clofibrate (Atromid-S)] | 0.0273 ± 0.022 | 0.9951 ± 0.0084 | 0.102 ± 0.097 | 0.235 ± 0.099 |
| CCCCOc1cc(C(=O)NCCN(CC)CC)c2ccccc2n1 [Dibucaine HCL] | 0.0313 ± 0.03 | 0.988 ± 0.021 | 0.0941 ± 0.087 | 0.187 ± 0.067 |
| O=c1ccc2ccccc2o1 [Coumarin] | 0.0609 ± 0.075 | 0.969 ± 0.053 | 0.101 ± 0.076 | 0.221 ± 0.047 |
| CCC(=O)O[C@@H](O[P@](=O)(CCCCc1ccccc1)CC(=O)N1C[C@H](C2CCCCC2)C[C@H]1C(=O)O)C(C)C [Fosinopril sodium (Monopril)] | 0.0646 ± 0.087 | 0.992 ± 0.013 | 0.0989 ± 0.065 | 0.244 ± 0.074 |
| COc1nc(C)nc(Cl)c1NC1=NCCN1 [Moxonidine] | 0.123 ± 0.19 | 0.995 ± 0.0086 | 0.118 ± 0.069 | 0.234 ± 0.091 |
| CCOc1nc2cccc(C(=O)O)c2n1Cc1ccc(-c2ccccc2-c2noc(=O)[nH]2)cc1 [Azilsartan (TAK-536)] | 0.109 ± 0.14 | 0.984 ± 0.028 | 0.121 ± 0.11 | 0.211 ± 0.055 |
| COC(=O)Nc1nc2cc(C(=O)c3ccc(F)cc3)ccc2[nH]1 [Flubendazole (Flutelmium)] | 0.0935 ± 0.12 | 0.986 ± 0.024 | 0.175 ± 0.08 | 0.296 ± 0.06 |
| COc1ccccc1OCC(O)COC(N)=O (configuration not stated) [Methocarbamol (Robaxin)] | 0.0672 ± 0.074 | 0.9986 ± 0.0025 | 0.121 ± 0.091 | 0.239 ± 0.071 |
| CO[C@H]1C(=O)[C@]2(C)[C@@H](OC)C[C@H]3OC[C@@]3(OC(C)=O)[C@H]2[C@H](OC(=O)c2ccccc2)[C@]2(O)C[C@H](OC(=O)[C@H](O)[C@@H](NC(=O)OC(C)(C)C)c3ccccc3)C(C)=C1C2(C)C [Cabazitaxel (Jevtana)] | 0.119 ± 0.15 | 0.986 ± 0.025 | 0.214 ± 0.16 | 0.276 ± 0.12 |
| C[C@]12CCC(=O)C=C1CC[C@@H]1[C@@H]2[C@@H](O)C[C@@]2(C)[C@H]1CC[C@]2(O)C(=O)CO [Hydrocortisone (Cortisol)] | 0.0535 ± 0.027 | 0.9981 ± 0.0032 | 0.0944 ± 0.069 | 0.25 ± 0.053 |
| C[N+]1(C)CCC(=C(c2ccccc2)c2ccccc2)CC1 [Diphemanil methylsulfate] | 0.0618 ± 0.059 | 0.994 ± 0.01 | 0.12 ± 0.11 | 0.198 ± 0.065 |
| CC/C(=C(/CC)c1ccc(O)cc1)c1ccc(O)cc1 [Diethylstilbestrol (Stilbestrol)] | 0.109 ± 0.17 | 0.993 ± 0.011 | 0.0984 ± 0.063 | 0.206 ± 0.061 |
| CCCOc1ccc(C(=O)OCCN(CC)CC)cc1N [Proparacaine HCl] | 0.128 ± 0.17 | 0.985 ± 0.025 | 0.1 ± 0.056 | 0.186 ± 0.075 |
| C[C@H](CCC(=O)O)[C@H]1CC[C@H]2[C@@H]3[C@H](O)C[C@@H]4C[C@H](O)CC[C@]4(C)[C@H]3CC[C@]12C [Chenodeoxycholic acid] | 0.0848 ± 0.086 | 0.992 ± 0.015 | 0.101 ± 0.078 | 0.236 ± 0.05 |
| Nc1nc(Cl)nc2c1ncn2[C@H]1C[C@H](O)[C@@H](CO)O1 [Cladribine] | 0.0618 ± 0.051 | 0.994 ± 0.011 | 0.0781 ± 0.03 | 0.182 ± 0.072 |
| COc1cccc2c1C(=O)c1c(O)c3c(c(O)c1C2=O)C[C@@](O)(C(=O)CO)C[C@@H]3O[C@H]1C[C@H](N)[C@@H](O)[C@H](C)O1 [Epirubicin Hydrochloride] | 0.0849 ± 0.13 | 0.686 ± 0.54 | 0.0337 ± 0.024 | 0.731 ± 0.44 |
| Cn1ccnc1S [Methimazole (Tapazole, Northyx)] | 0.0754 ± 0.088 | 0.9977 ± 0.004 | 0.104 ± 0.063 | 0.209 ± 0.067 |
| O=S(=O)(O)NC1CCCCC1 [Cyclamic  acid] | 0.0725 ± 0.1 | 0.992 ± 0.013 | 0.154 ± 0.12 | 0.213 ± 0.055 |
| CC(=O)NS(=O)(=O)c1ccc(NC(=O)c2ccccc2C(=O)O)cc1 [Phthalylsulfacetamide] | 0.122 ± 0.13 | 0.9969 ± 0.0054 | 0.161 ± 0.15 | 0.297 ± 0.26 |
| CO[C@H]1C[C@@H]2CC[C@@H](C)[C@@](O)(O2)C(=O)C(=O)N2CCCC[C@H]2C(=O)O[C@H]([C@H](C)C[C@@H]2CC[C@@H](OCCO)[C@H](OC)C2)CC(=O)[C@H](C)/C=C(\C)[C@@H](O)[C@@H](OC)C(=O)[C@H](C)C[C@H](C)/C=C/C=C/C=C/1C [Everolimus (RAD001)] | 0.17 ± 0.11 | 0.998 ± 0.0034 | 0.257 ± 0.19 | 0.331 ± 0.13 |
| CC(C)C[C@H](NC(=O)[C@@H](O)[C@H](N)Cc1ccccc1)C(=O)O [Ubenimex (Bestatin)] | 0.0668 ± 0.084 | 0.998 ± 0.0034 | 0.0885 ± 0.053 | 0.188 ± 0.08 |
| CCCCN1CCCCC1C(=O)Nc1c(C)cccc1C (configuration not stated) [Bupivacaine hydrochloride (Marcain)] | 0.223 ± 0.35 | 0.9953 ± 0.0081 | 0.111 ± 0.058 | 0.227 ± 0.09 |

Part of the list above in order of heavy-atom count, largest number first:

| SMILES | fraction [1] | fraction [2] | fraction of reporter-positive cells with nuclear [3] | fraction of reporter-positive cells with nuclear [4] |
| --- | --- | --- | --- | --- |
| C[C@H](CCC(=O)O)[C@H]1CC[C@H]2[C@@H]3[C@H](O)C[C@@H]4C[C@H](O)CC[C@]4(C)[C@H]3CC[C@]12C [Chenodeoxycholic acid] | 0.0848 ± 0.086 | 0.992 ± 0.015 | 0.101 ± 0.078 | 0.236 ± 0.05 |
| CCCOc1ccc(C(=O)OCCN(CC)CC)cc1N [Proparacaine HCl] | 0.128 ± 0.17 | 0.985 ± 0.025 | 0.1 ± 0.056 | 0.186 ± 0.075 |
| O=S(=O)(O)NC1CCCCC1 [Cyclamic  acid] | 0.0725 ± 0.1 | 0.992 ± 0.013 | 0.154 ± 0.12 | 0.213 ± 0.055 |
